{"source": "PubChem BioAssay AID248", "about": "(DTP/NCI, 2004)", "tested_on": "L1210 leukemia ip in BDF1 mice, survival T/C", "assay": "NCI In Vivo Anticancer Drug Screen. Data for tumor model L1210 Leukemia (intraperitoneal) in B6D2F1 (BDF1) mice", "details": "T/C endpoint: mean survival time, higher T/C = longer survival", "key": {"[1]": {"details": "dose: 50.0 mg/kg/injection, schedule: Q01DX009 (ip), vehicle: saline with Tween-80"}, "[2]": {"details": "dose: 400.0 mg/kg/injection, schedule: Q04DX003 (ip), vehicle: Klucel (hydroxypropylcellulose) (HPC)"}, "[3]": {"details": "dose: 200.0 mg/kg/injection, schedule: Q04DX002 (ip), vehicle: saline with Tween-80"}, "[4]": {"details": "dose: 400.0 mg/kg/injection, schedule: Q04DX002 (ip), vehicle: saline with Tween-80"}, "[5]": {"details": "dose: 200.0 mg/kg/injection, schedule: Q01DX001 (ip), vehicle: saline"}, "[6]": {"details": "dose: 400.0 mg/kg/injection, schedule: Q01DX001 (ip), vehicle: saline"}, "[7]": {"details": "dose: 400.0 mg/kg/injection, schedule: Q04DX002 (ip), vehicle: saline"}, "[8]": {"details": "dose: 400.0 mg/kg/injection, schedule: Q01DX001 (ip), vehicle: carboxymethylcellulose (CMC)"}, "[9]": {"details": "dose: 80.0 mg/kg/injection, schedule: Q04DX003 (ip), vehicle: saline"}, "[10]": {"details": "dose: 100.0 mg/kg/injection, schedule: Q01DX001 (ip), vehicle: saline"}}, "note": "The list shows only some results of the screen, not a fair sample: it is rich in T/C values a quarter to a half above the control, in often repeated tests (any T/C) and in doses without a T/C. Further doses and runs are listed elsewhere. T/C gives the treated animals as a percentage of the vehicle group. Some entries give survivors of the animals treated and no T/C: the source files T/C as zero there, which appears to mark a toxic dose or a test without result, not a measured value. Some doses without a T/C left all or most animals alive at the check, yet need not have been tolerated: survival well below the control is almost never listed, so the zero probably covers shortened survival too. Counts of survivors are from the toxicity check (mostly the fifth day) where no day follows; animals may have died later. Schedule codes are those of the source, taken here to give the interval after Q, in days (D) or hours (H), and the number of doses after X. Some doses were run more than once; their values stand side by side, smallest first. For survival time, the PubChem record calls one and a half times the control and up active, and a quarter to a half above the control has no call in these data; cut-offs in other NCI protocols can differ.", "data": [{"compound": "OC1C2C3CCC(C3)C2C(O)C2C3CCC(C3)C12", "note": "(stereo not drawn)", "values": [{"measurement": "survivor count", "setting": "[1]", "result": "3 of 3"}, {"measurement": "survivor count", "setting": "dose: 100.0 mg/kg/injection, schedule: Q01DX009 (ip), vehicle: saline with Tween-80", "result": "3 of 3"}, {"measurement": "survivor count", "setting": "dose: 200.0 mg/kg/injection, schedule: Q01DX009 (ip), vehicle: saline with Tween-80", "result": "3 of 3"}]}, {"compound": "Cc1c[n+]2ccc3ccccc3c2c2ccccc12", "values": [{"measurement": "survivor count", "setting": "dose: 10.0 mg/kg/injection, schedule: Q04DX003 (ip), vehicle: acetone", "result": "3 of 6"}, {"measurement": "survivor count", "setting": "dose: 11.0 mg/kg/injection, schedule: Q01DX009 (ip), vehicle: saline", "result": "1 of 6"}, {"measurement": "survivor count", "setting": "dose: 16.5 mg/kg/injection, schedule: Q01DX009 (ip), vehicle: saline", "result": "0 of 6"}, {"measurement": "survivor count", "setting": "dose: 20.0 mg/kg/injection, schedule: Q01DX001 (ip), vehicle: acetone", "result": "0 of 6"}]}, {"compound": "O=C1OC2(CCNCC2)C(=O)N1c1ccc(F)cc1", "values": [{"measurement": "survivor count", "setting": "dose: 50.0 mg/kg/injection, schedule: Q01DX001 (ip), vehicle: carboxymethylcellulose (CMC)", "result": "0 of 6"}]}, {"compound": "C=C(Br)CN(CCCC)C(C)=O", "values": [{"measurement": "survivor count", "setting": "dose: 100.0 mg/kg/injection, schedule: Q04DX003 (ip), vehicle: Klucel (hydroxypropylcellulose) (HPC)", "result": "6 of 6"}, {"measurement": "survivor count", "setting": "dose: 400.0 mg/kg/injection, schedule: Q01DX009 (ip), vehicle: Klucel (hydroxypropylcellulose) (HPC)", "result": "0 of 6"}, {"measurement": "survivor count", "setting": "[2]", "result": "1 of 6 and 2 of 6"}]}, {"compound": "CCCCCCC(C)NCC(O)COc1cccc(C)c1", "note": "(stereo not drawn)", "values": [{"measurement": "survivor count", "setting": "[1]", "result": "3 of 3"}, {"measurement": "survivor count", "setting": "dose: 100.0 mg/kg/injection, schedule: Q04DX002 (ip), vehicle: saline with Tween-80", "result": "3 of 3"}, {"measurement": "survivor count", "setting": "[3]", "result": "1 of 3"}, {"measurement": "survivor count", "setting": "[4]", "result": "0 of 3"}]}, {"compound": "OCC(O)C(O)C(O)C(O)C(c1ccc(F)cc1)c1ccc(F)cc1", "note": "(stereo not drawn)", "values": [{"measurement": "survivor count", "setting": "[5]", "result": "1 of 4"}, {"measurement": "survivor count", "setting": "[6]", "result": "0 of 4"}]}, {"compound": "CCN(CC)Cc1ccccc1COC(=O)c1ccc(OC)cc1", "values": [{"measurement": "survivor count", "setting": "[7]", "result": "1 of 3"}]}, {"compound": "CCOc1cc(N)nc(N)c1[N+](=O)[O-]", "values": [{"measurement": "survivor count", "setting": "[8]", "result": "1 of 6"}]}, {"compound": "O=[N+]([O-])c1ccc(S(=O)(=O)OCc2ccccc2COS(=O)(=O)c2ccc([N+](=O)[O-])cc2)cc1", "values": [{"measurement": "survivor count", "setting": "[3]", "result": "3 of 3"}, {"measurement": "survivor count", "setting": "[4]", "result": "3 of 3"}]}, {"compound": "Cc1ncc(CO)c(C2NOCc3ncsc32)c1O", "note": "(stereo not drawn)", "values": [{"measurement": "survivor count", "setting": "dose: 25.0 mg/kg/injection, schedule: Q01DX009 (ip), vehicle: saline", "result": "2 of 6"}, {"measurement": "survivor count", "setting": "dose: 35.0 mg/kg/injection, schedule: Q04DX003 (ip), vehicle: saline", "result": "3 of 6"}, {"measurement": "survivor count", "setting": "dose: 50.0 mg/kg/injection, schedule: Q01DX001 (ip), vehicle: saline", "result": "0 of 6"}, {"measurement": "survivor count", "setting": "dose: 55.0 mg/kg/injection, schedule: Q04DX003 (ip), vehicle: saline", "result": "0 of 6"}, {"measurement": "survivor count", "setting": "[9]", "result": "0 of 6"}, {"measurement": "survivor count", "setting": "[10]", "result": "0 of 6"}, {"measurement": "survivor count", "setting": "[5]", "result": "0 of 6"}, {"measurement": "survivor count", "setting": "[6]", "result": "0 of 6"}]}, {"compound": "CCS(=O)(=O)CC(C)O", "note": "(stereo not drawn)", "values": [{"measurement": "survivor count", "setting": "dose: 100.0 mg/kg/injection, schedule: Q04DX002 (ip), vehicle: saline", "result": "2 of 3"}, {"measurement": "survivor count", "setting": "dose: 200.0 mg/kg/injection, schedule: Q04DX002 (ip), vehicle: saline", "result": "3 of 3"}, {"measurement": "survivor count", "setting": "[7]", "result": "3 of 3"}]}, {"compound": "CC1(/C=N/Nc2nnc(N/N=C/C3(C)CCC=CO3)c3ccccc23)CCC=CO1", "note": "(stereo not drawn)", "values": [{"measurement": "survivor count", "setting": "[8]", "result": "0 of 4"}]}, {"compound": "CC(=O)CCN1CCCCC1", "values": [{"measurement": "T/C", "setting": "dose: 40.0 mg/kg/injection, schedule: Q04DX003 (ip), vehicle: saline", "result": "128 % of control"}, {"measurement": "survivor count", "setting": "[9]", "result": "5 of 6"}, {"measurement": "survivor count", "setting": "dose: 100.0 mg/kg/injection, schedule: Q04DX003 (ip), vehicle: saline", "result": "6 of 6"}, {"measurement": "survivor count", "setting": "dose: 200.0 mg/kg/injection, schedule: Q04DX003 (ip), vehicle: saline", "result": "6 of 6"}, {"measurement": "survivor count", "setting": "dose: 400.0 mg/kg/injection, schedule: Q04DX003 (ip), vehicle: saline", "result": "6 of 6"}]}, {"compound": "OCP(CO)CO.[Cl][Hg][Cl]", "values": [{"measurement": "survivor count", "setting": "[10]", "result": "0 of 6"}, {"measurement": "survivor count", "setting": "dose: 300.0 mg/kg/injection, schedule: Q01DX001 (ip), vehicle: saline", "result": "0 of 6"}]}, {"compound": "Cc1ccc(C(C)C)cc1NC(=O)NCCCl", "values": [{"measurement": "survivor count", "setting": "[2]", "result": "2 of 6"}]}, {"compound": "CCOC(=O)CNC(=O)C(CSSCC(NC(=O)OCc1ccccc1)C(=O)NCC(=O)OCC)NC(=O)OCc1ccccc1", "note": "(stereo not drawn)", "values": [{"measurement": "survivor count", "setting": "dose: 200.0 mg/kg/injection, schedule: Q04DX003 (ip), vehicle: Klucel (hydroxypropylcellulose) (HPC)", "result": "6 of 6"}, {"measurement": "survivor count", "setting": "[2]", "result": "6 of 6"}]}]}
